Experimental data published in patent US10669312B2 (CAREGEN CO., LTD., priority 2013, dated 2020).
Ends that are not written are not given here.

Assays:
[1] = general procedure: peptide synthesis; chloro trityl chloride resin; conditions: whole synthesis
[2] = general procedure: peptide synthesis; chloro trityl chloride resin (CTL resin, Nova Biochem Cat No. 01-64-0021); conditions: whole synthesis, scale of the general procedure 700 mg resin

Row | Sequence | crude mass [1] [g] | crude yield ([1]; scale of the general procedure 700 mg resin) [%] | crude yield [2] [%]
1 | NCSNMICEIITH (cysteine pairing not given here) | 0.5 | 89.9 | –
2 | RRKLTFYLKTLE | – | – | 92.1
